PubChem BioAssay AID602196 | INSERM – 2012
Here is a random part of about 23,000 deposited reagents. 455 of them (2%) count as active. 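Active includes both protection and sensitisation; some change values fall well beyond the stated -50 to +50 range.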 The numbers tell different reagents against one gene apart. Not all columns of the deposit are shown. Not given: the amount of reagent.

Test: 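Modifiers of cisplatin sensitivity in A549 cells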
Cells: human A549 lung cancer cells
Reagent: siRNA pair against human genes
Time to read-out: 48 h transfection before cisplatin; time from cisplatin to read-out not stated
Treatment: cisplatin at a dose killing half of control-siRNA cells; exact dose and duration not given
Measurement: 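Shift in cisplatin death relative to control siRNA, from -50 (all cells die) to +50 (no cells die); siRNAs harmful on their own scored 0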
Direction: two-siRNA summed score (-2 to +2): higher = both siRNAs protect from cisplatin killing; -2 means both sensitise
Rule for the call: 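siRNAs harmful alone (LDH or WST-1) get 0; others get +1 for less and -1 for more cisplatin killing; genes are active when the two siRNAs give the same sign, summing to ±2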
Meaning of the calls: active = both siRNAs shift cisplatin killing the same way; inactive = no consistent shift, or siRNA harmful alone

two-siRNA summed score (-2 to +2), by gene and reagent
LRRC10: #1 1 inactive
MYL4: #1 0 inactive
LOC440504: #1 1 inactive
ZCCHC10: #1 0 inactive
GATA1: #1 1 inactive
TAOK2: #1 1 inactive; #2 1 inactive
ERO1B: #1 0 inactive
POLR2L: #1 -1 inactive
CDH26: #1 0 inactive
LOC283584: #1 0 inactive
LOC389624: #1 0 inactive
LOC440280: #1 0 inactive
LOC441582: #1 0 inactive
ZP1: #1 0 inactive
PLPP6: #1 0 inactive
LOC400688: #1 0 inactive
LOC440870: #1 0 inactive
LOC388923: #1 0 inactive
ADAM22: #1 0 inactive
MGC26694: #1 0 inactive
MAT2B: #1 0 inactive
LOC390816: #1 0 inactive
ELF2: #1 0 inactive
SCAPER: #1 0 inactive
KIAA1922: #1 -1 inactive
IL2: #1 0 inactive
LOC284230: #1 0 inactive
CCDC112: #1 0 inactive
LOC284240: #1 0 inactive
HBE1: #1 0 inactive
AFG1L: #1 1 inactive
UPK1A: #1 0 inactive
INSL5: #1 1 inactive
PLAAT3: #1 -1 inactive
GMFB: #1 0 inactive
INE1: #1 -1 inactive
SPATA31D1: #1 0 inactive
NRXN2: #1 0 inactive

A stretch taken from the entries so far, for reference:
two-siRNA summed score (-2 to +2), by gene and reagent
GATA1: #1 1 inactive
TAOK2: #1 1 inactive; #2 1 inactive
ERO1B: #1 0 inactive
POLR2L: #1 -1 inactive

Additional records:
two-siRNA summed score (-2 to +2), by gene and reagent
LPP: #1 1 inactive
AQP3: #1 0 inactive
CRLF3: #1 -1 inactive
RBKS: #1 2 active
DCPH1: #1 0 inactive
LOC400410: #1 0 inactive
LOC441687: #1 2 active
CRTC2: #1 0 inactive
GLRX2: #1 0 inactive
ANGPTL2: #1 0 inactive
ADAMTS8: #1 -1 inactive
MAGEH1: #1 0 inactive
COLEC11: #1 0 inactive
SLC36A4: #1 0 inactive
BCKDK: #1 1 inactive
KCNK17: #1 0 inactive
LOC163301: #1 0 inactive
RTKN2: #1 1 inactive
KIF25-AS1: #1 0 inactive
MEAK7: #1 0 inactive
HHIPL1: #1 1 inactive
ANKHD1: #1 0 inactive
TFAP2A: #1 0 inactive
DHX36: #1 0 inactive
TSSK3: #1 1 inactive
UBL7-DT: #1 0 inactive
GPER1: #1 0 inactive
KCNJ9: #1 0 inactive
POLA2: #1 -1 inactive
STX17-DT: #1 0 inactive
RNF133: #1 1 inactive
LINGO4: #1 0 inactive
XAF1: #1 0 inactive
PLCD3: #1 1 inactive
